PubChem BioAssay AID328 (DTP/NCI, 2004)
The list is a part of this screen's results and no random one: it covers a few groups of compounds. Not every dose and run of a compound is shown. T/C is the treated group as % of the vehicle group. Where survival is the endpoint, the PubChem record calls one and a half times the control and up active, and a quarter to a half above the control has no call in these data; cut-offs in other NCI protocols can differ. Some T/C values are marked as having no survivor count here; that says nothing about deaths at the dose. Schedule codes are those of the source, taken here to give the interval after Q, in days (D) or hours (H), and the number of doses after X. Some entries hold several experiments; the values are given in rising order. Additions like (4×) stand for listed records that agree.

System: BDF1 mice, P388 leukemia ip, median survival T/C
Experiment: NCI In Vivo Anticancer Drug Screen. Data for tumor model P388 Leukemia (intraperitoneal) in B6D2F1 (BDF1) mice
Details: T/C endpoint: median survival time, higher T/C = longer survival
Summary of the method: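 Steps: implant the tumour, treat one group with compound and another with vehicle, record survival, then divide treated by control.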

[1] = dose: 50.0 mg/kg/injection, schedule: Q04DX003 (ip), vehicle: saline with Tween-80
[2] = dose: 100.0 mg/kg/injection, schedule: Q04DX003 (ip), vehicle: saline with Tween-80

## O=Nc1ccc(N(CCCl)CCCl)cc1
dose: 5.2 mg/kg/injection, schedule: Q04DX003 (ip), vehicle: Klucel (hydroxypropylcellulose) (HPC)
  T/C: 165 % of control [survivor count not shown]
dose: 5.2 mg/kg/injection, schedule: Q04DX003 (ip), vehicle: saline
  T/C: 128 % of control [survivor count not shown]
dose: 8.0 mg/kg/injection, schedule: Q04DX003 (ip), vehicle: Klucel (hydroxypropylcellulose) (HPC)
  T/C: 145 % of control [survivor count not shown]
dose: 8.0 mg/kg/injection, schedule: Q04DX003 (ip), vehicle: saline
  T/C: 133 % of control [survivor count not shown]
dose: 12.0 mg/kg/injection, schedule: Q04DX003 (ip), vehicle: Klucel (hydroxypropylcellulose) (HPC)
  T/C: 175 % of control [survivor count not shown]
dose: 12.0 mg/kg/injection, schedule: Q04DX003 (ip), vehicle: saline
  T/C: 180 % of control [survivor count not shown]
dose: 17.0 mg/kg/injection, schedule: Q04DX003 (ip), vehicle: alcohol
  T/C: 186 % of control [survivor count not shown]
dose: 27.0 mg/kg/injection, schedule: Q04DX003 (ip), vehicle: alcohol
  T/C: 186 % of control [survivor count not shown]
dose: 40.0 mg/kg/injection, schedule: Q04DX003 (ip), vehicle: alcohol
  T/C: 204 % of control [survivor count not shown]

## O[C@@H](CNCCCl)[C@@H](O)CNCCCl
dose: 26.4 mg/kg/injection, schedule: Q04DX003 (ip), vehicle: saline with Tween-80
  T/C: 272 % of control [survivor count not shown]
dose: 40.0 mg/kg/injection, schedule: Q04DX003 (ip), vehicle: saline with Tween-80
  T/C: 272 % of control [survivor count not shown]
dose: 60.0 mg/kg/injection, schedule: Q04DX003 (ip), vehicle: saline with Tween-80
  T/C: 272 % of control [survivor count not shown]

## ClCCN(CCCl)Cc1nc2ccc(Cl)cc2[nH]1
dose: 1.1 mg/kg/injection, schedule: Q01DX009 (ip), vehicle: Klucel (hydroxypropylcellulose) (HPC)
  T/C: 104 % of control [survivor count not shown]
dose: 1.7 mg/kg/injection, schedule: Q01DX009 (ip), vehicle: Klucel (hydroxypropylcellulose) (HPC)
  T/C: 109 % of control [survivor count not shown]
dose: 2.7 mg/kg/injection, schedule: Q01DX009 (ip), vehicle: Klucel (hydroxypropylcellulose) (HPC)
  T/C: 125 % of control [survivor count not shown]
dose: 4.0 mg/kg/injection, schedule: Q01DX009 (ip), vehicle: Klucel (hydroxypropylcellulose) (HPC)
  T/C: 120 % of control [survivor count not shown]
dose: 6.18 mg/kg/injection, schedule: Q01DX009 (ip), vehicle: Klucel (hydroxypropylcellulose) (HPC)
  T/C: 122 [survivor count not shown] and 163 % of control [survivor count not shown]
dose: 9.37 mg/kg/injection, schedule: Q01DX009 (ip), vehicle: Klucel (hydroxypropylcellulose) (HPC)
  T/C: 145 [survivor count not shown], 172 [survivor count not shown], 177 % of control [survivor count not shown]
dose: 14.0 mg/kg/injection, schedule: Q01DX009 (ip), vehicle: Klucel (hydroxypropylcellulose) (HPC)
  T/C: 86 [survivor count not shown] and 145 % of control [survivor count not shown]
dose: 18.75 mg/kg/injection, schedule: Q04DX003 (ip), vehicle: Klucel (hydroxypropylcellulose) (HPC)
  T/C: 100 % of control [survivor count not shown]
dose: 37.5 mg/kg/injection, schedule: Q04DX003 (ip), vehicle: Klucel (hydroxypropylcellulose) (HPC)
  T/C: 111 % of control [survivor count not shown]

## O=C(O)c1ccc(CN(CCCl)CCCl)cc1
dose: 0.78 mg/kg/injection, schedule: Q04DX003 (ip), vehicle: water
  T/C: 113 % of control [survivor count not shown]
dose: 1.0 mg/kg/injection, schedule: Q01DX009 (ip), vehicle: water
  T/C: 150 % of control [survivor count not shown]
dose: 1.56 mg/kg/injection, schedule: Q04DX003 (ip), vehicle: water
  T/C: 120 % of control [survivor count not shown]
dose: 2.0 mg/kg/injection, schedule: Q01DX009 (ip), vehicle: water
  T/C: 166 % of control [survivor count not shown]
dose: 3.12 mg/kg/injection, schedule: Q04DX003 (ip), vehicle: water
  T/C: 173 % of control [survivor count not shown]
dose: 4.0 mg/kg/injection, schedule: Q01DX009 (ip), vehicle: water
  T/C: 185 % of control [survivor count not shown]

## ClCCN(CCCl)Cc1nc2ccccc2[nH]1
dose: 1.25 mg/kg/injection, schedule: Q01DX010 (ip), vehicle: saline
  T/C: 160 [survivor count not shown] and 163 % of control [survivor count not shown]
dose: 2.5 mg/kg/injection, schedule: Q01DX010 (ip), vehicle: saline
  T/C: 175 [survivor count not shown] and 181 % of control [survivor count not shown]
dose: 5.0 mg/kg/injection, schedule: Q01DX010 (ip), vehicle: saline
  T/C: 215 [survivor count not shown] and 227 % of control [survivor count not shown]
dose: 10.0 mg/kg/injection, schedule: Q01DX010 (ip), vehicle: saline
  T/C: 140 % of control [survivor count not shown]

## ClCCN(CCCl)Cc1nc2cc(Cl)c(Cl)cc2[nH]1
dose: 33.0 mg/kg/injection, schedule: Q04DX003 (ip), vehicle: saline with Tween-80
  T/C: 150 % of control [survivor count not shown]
[1]
  T/C: 137 % of control [survivor count not shown]
dose: 75.0 mg/kg/injection, schedule: Q04DX003 (ip), vehicle: saline with Tween-80
  T/C: 145 % of control [survivor count not shown]

## S=P(Cl)(Cl)Cl
dose: 12.5 mg/kg/injection, schedule: Q04DX003 (ip), vehicle: saline
  T/C: 109 % of control [survivor count not shown]
dose: 25.0 mg/kg/injection, schedule: Q04DX003 (ip), vehicle: saline
  T/C: 109 % of control [survivor count not shown]
dose: 50.0 mg/kg/injection, schedule: Q04DX003 (ip), vehicle: saline
  T/C: 109 % of control [survivor count not shown]

## NP(=O)(OCc1ccccc1)N(CCCl)CCCl (stereo not given)
[1]
  T/C: 104 % of control [survivor count not shown]
[2]
  T/C: 100 [survivor count not shown] and 131 % of control [survivor count not shown]
dose: 175.0 mg/kg/injection, schedule: Q04DX003 (ip), vehicle: saline with Tween-80
  T/C: 136 % of control [survivor count not shown]
dose: 200.0 mg/kg/injection, schedule: Q04DX003 (ip), vehicle: saline with Tween-80
  T/C: 104 % of control [survivor count not shown]
dose: 264.0 mg/kg/injection, schedule: Q04DX003 (ip), vehicle: saline with Tween-80
  T/C: 125 [survivor count not shown] and 140 % of control [survivor count not shown]
dose: 400.0 mg/kg/injection, schedule: Q04DX003 (ip), vehicle: saline with Tween-80
  T/C: 141 [survivor count not shown] (2×) and 175 % of control [survivor count not shown]
dose: 600.0 mg/kg/injection, schedule: Q04DX003 (ip), vehicle: saline with Tween-80
  T/C: 175 [survivor count not shown] and 225 % of control [survivor count not shown]

## ClCCNCCCl.O=C(O)/C=C\C(=O)O
dose: 14.0 mg/kg/injection, schedule: Q01DX009 (ip), vehicle: saline
  T/C: 122 % of control [survivor count not shown]
dose: 21.0 mg/kg/injection, schedule: Q01DX009 (ip), vehicle: saline
  T/C: 109 % of control [survivor count not shown]
dose: 25.0 mg/kg/injection, schedule: Q01DX009 (ip), vehicle: saline
  T/C: 120 % of control [survivor count not shown]
dose: 33.0 mg/kg/injection, schedule: Q01DX009 (ip), vehicle: saline with Tween-80
  T/C: 131 % of control [survivor count not shown]
dose: 50.0 mg/kg/injection, schedule: Q01DX009 (ip), vehicle: saline with Tween-80
  T/C: 186 % of control [survivor count not shown]
dose: 50.0 mg/kg/injection, schedule: Q01DX009 (ip), vehicle: saline
  T/C: 160 % of control [survivor count not shown]
dose: 66.0 mg/kg/injection, schedule: Q04DX003 (ip), vehicle: saline with Tween-80
  T/C: 121 % of control [survivor count not shown]
dose: 75.0 mg/kg/injection, schedule: Q01DX009 (ip), vehicle: saline with Tween-80
  T/C: 209 % of control [survivor count not shown]
dose: 100.0 mg/kg/injection, schedule: Q01DX009 (ip), vehicle: saline
  T/C: 150 % of control [survivor count not shown]
[2]
  T/C: 182 % of control [survivor count not shown]
dose: 150.0 mg/kg/injection, schedule: Q04DX003 (ip), vehicle: saline with Tween-80
  T/C: 239 % of control [survivor count not shown]
